At least one compound was matched to its structure with a doubt left.
Assays:
[1] = system: human EAAT2; experiment: In vitro assay in primary astrocyte cultures (PA-EAAT2 cells), EAAT2 protein levels by Western blot; format: cell-based; conditions: PA-EAAT2 cells treated 24 hr at 0.25-25 μM; relative to DMSO controls; value at the concentration that reaches maximum activity
Method: In vitro assay in primary astrocyte cultures. Example compounds were initially evaluated in PA-EAAT2 cells, a primary astrocyte stably expressing human EAAT2 mRNAs (Kong et al., J Clin Invest. 124:1255-67). Cells were treated with the example compounds at 0.25 μM, 0.5 μM, 1 μM, 2.5 μM, 5 μM, 10 μM, and 25 μM for 24 hr and then harvested for measuring EAAT2 protein levels by Western blot analysis.

[2] = system: EAAT2; experiment: In vivo assay in wild-type mice, EAAT2 protein levels in forebrain gliosomes by Western blot; conditions: C57BL/6J mice, 40 mg/kg oral gavage, relative to vehicle controls
Method: In vivo assay in wild-type mice. Example compounds that were capable of increasing EAAT2 protein expression in cultured astrocytes were further evaluated in C57BL/6J mice. Mice were treated by oral gavage with the compound at 40 mg/kg. At 24 hr post-treatment, mice were euthanized and forebrains were harvested for the gliosome preparation (Dunkley et al., Nat Protoc 3, 1718-1728). Gliosomes are enriched with astrocytic processes, and majority of EAAT2 is localized in astrocytic processes (gliosomes). EAAT2 protein levels in gliosomes were determined by Western blot analysis.

O=C(Nc1ccc(-c2ccccn2)nc1)c1ccc(F)c(Cl)c1 [Example 20, N-([2,2′-bipyridin]-5-yl)-3-chloro-4-fluorobenzamide]
In vitro - fold increase for EAAT2 in cultured astrocytes at indicated concentration (maximum activity) [1]: no increase
In vivo - fold increase for EAAT2 in mouse forebrain at 24 hr post treatment (40 mg/kg by PO) [2]: no increase

Source: US11377436B2, “EAAT2 enhancing molecules” (THE BRIGHAM AND WOMEN'S HOSPITAL, INC., priority 2017, dated 2022)
